Assay results reported in paper PMC11753439.
Results are given in words; binding and its absence hold for the method and conditions named. In cells and extracts the contact can be indirect. Some entries that bind do so weakly or less than the wild type.

Target: T1, Nodulin-35 (UniProt P04670)
T1 sequence: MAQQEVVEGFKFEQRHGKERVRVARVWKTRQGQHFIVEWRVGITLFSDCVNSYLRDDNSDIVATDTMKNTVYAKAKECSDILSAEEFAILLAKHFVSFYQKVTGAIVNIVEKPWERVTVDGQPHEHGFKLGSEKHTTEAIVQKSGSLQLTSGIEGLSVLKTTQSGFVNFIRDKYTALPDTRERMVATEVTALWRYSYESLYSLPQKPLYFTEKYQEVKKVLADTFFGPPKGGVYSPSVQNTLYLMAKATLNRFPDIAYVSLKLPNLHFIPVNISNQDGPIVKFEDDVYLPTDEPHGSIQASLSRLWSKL
Assay: split reporter; BiFC with YFPN and YFPC fusions (p326YFPN, p326YFPC) transformed together into onion epidermal cells; fluorescence microscopy

B1: AtTRX-o1 (protein, UniProt O64764 43-194)
chain: SSLIARNSLFTASNIGPSIDFNFSNTSLPHRRSLCSEAGGENGVVLVKSEEEFINAMSKAQDGSLPSVFYFTAAWCGPCRFISPVIVELSKQYPDVTTYKVDIDEGGISNTISKLNITAVPTLHFFKGGSKKGEVVGADVTKLKNLMEQLYK
binding: binds
